Measured values taken from PubChem BioAssay AID1347423 (Functional Genomics Laboratory (NCATS/FGL), 2020).
The whole screen tested about 52,000 sequences, of which about 210 (0.4%) were called active.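 How the source made its calls: active means gene whose silencing raises cell survival under the drug, median off-target-corrected z-score across its silencing RNAs 2 or more; inactive means the rest.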 The list shows a part of the results.

Test: Resistance to Poly (ADP-Ribose) Polymerase inhibitor: Gene Identification via Genome-wide siRNA Screen
Conditions: mouse BRCA2 R2336H ES cells, olaparib, CellTiter-Glo viability; hits give high values
Method in brief: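 Genome-wide siRNA screen (3 siRNAs/gene, 20 nM) in mouse ES cells carrying hypomorphic BRCA2 R2336H; olaparib 500 nM added 48 h post-transfection, CellTiter-Glo viability 72 h later. Normalized to plate-median negative control; MAD z-scores, gene median, seed-adjusted.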

Q: Which z-score does the source give for “GCUCAGACCAUAGUUUCUATT against A930002I21Rik” here?
A: inactive: 1.53

Q: With GGAUGUUAUAAGAUUGCGUTT against Rnf170 as the sequence, how does the z-score read?
A: inactive: -0.646

Q: With GGCAUUUAGACUUUUUUGATT against Daam1 as the sequence, how does the z-score read?
A: inactive: 1.05

Q: For GGUGUUUAAAUUCAUCUACTT against AU024582, which z-score is on record?
A: inactive: 0.0454

Q: For “GGAUCUUGAGUUGGAGUCCTT against 4930579G22Rik”, which z-score is on record?
A: inactive: 1

Q: Which z-score does the source give for GGUUUUGAGAAGAUAACUCTT against Zfp236 here?
A: inactive: 0.912

Q: With “CCUUGUUAUAGACCAACCUTT against 2310034C09Rik” as the sequence, how does the z-score read?
A: inactive: -0.376

Q: With CGCAGGAUACAGCUAUAUUTT against Elovl4 as the sequence, how does the z-score read?
A: inactive: -0.91

Q: Which z-score does the source give for GGAAUCAGUGGUACCAAAUTT against Sorcs1 here?
A: inactive: -2.92

Q: Which z-score does the source give for CCAGUCCAUUGAAUAGUUCTT against Papola here?
A: inactive: 0.832

Q: For GCUAUGGACCUCAGCAUAGTT against Inpp5e, which z-score is on record?
A: inactive: -1.86

Q: Which z-score does the source give for GGUGUGUUCAGGAGUUGAUTT against Col12a1 here?
A: inactive: 1.15

Q: Which z-score does the source give for “GCGGUGAUUUCGUCUAUUUTT against D14Ertd436e” here?
A: inactive: -0.623

Q: With CCUUUAUUGGUGUUGGCCGTT against Apbb3 as the sequence, how does the z-score read?
A: inactive: 0.193

Q: For CUCGCUGCCCGGCGGCCUCTT against Sox3, which z-score is on record?
A: inactive: 0.119

Q: For GGACGGUCUUGAAAAUGGATT against Creld1, which z-score is on record?
A: inactive: 0.19

Q: Which z-score does the source give for GGAUUUCAAAGUGCUUUGCTT against Kifap3 here?
A: inactive: 0.243

Q: With “CGUUGUCAAAAGGACCCAUTT against D7Ertd458e” as the sequence, how does the z-score read?
A: inactive: -0.695

Q: With GGUUAUCAGAAGUGGAGAGTT against Ingaprp as the sequence, how does the z-score read?
A: inactive: -1.81

Q: For GGGCAAGUAUGGGCAGUUCTT against Ppp1ca, which z-score is on record?
A: inactive: -0.683

Q: For GGUCUCUGGUAAGAAGAGCTT against Zfp276, which z-score is on record?
A: inactive: 1.71

Q: With “GCAUUAUAUGGCUUCAUAUTT against 5730414C17Rik” as the sequence, how does the z-score read?
A: inactive: -2.78

Q: Which z-score does the source give for GGAGAAGUGGUAGAAACUGTT against Brd8 here?
A: inactive: -1.65

Q: For GGCAGCUAAGUACGUUCAUTT against Gba, which z-score is on record?
A: inactive: 0.45

Q: Which z-score does the source give for GCGACUCCCACAUACUCAGTT against Muc19 here?
A: inactive: -2.66

Q: Which z-score does the source give for GGCCAAAAAAGGGUAUAAGTT against Rad18 here?
A: inactive: 0.265

Q: Which z-score does the source give for GGAAAAGGCAAUCGUUUCUTT against Gtpbp5 here?
A: inactive: 0.445

Q: Which z-score does the source give for CCUUAUAGUGCUGAGGAAATT against Orm1 here?
A: inactive: -1.34

Q: For GCUAUGCUACUGGUUGUGGTT against Olfr1351, which z-score is on record?
A: inactive: -0.226
